Results are given in words; binding and its absence hold for the method and conditions named. In cells and extracts the contact can be indirect. Some binding calls cover weakened binding; strength is not graded here.
What was measured:
[1] = biological target: EGFR in mouse liver (epidermal growth factor receptor, hepatocyte surface receptor) (mouse) (UniProt Q01279); assay: co-immunoprecipitation: liver cells incubated with partially purified mLeg1 at 4°C with crosslinker DSP, pulled down with mLeg1 antibody, Western blot for EGFR
[2] = biological target: EGFR in mouse liver (epidermal growth factor receptor, hepatocyte surface receptor) (mouse) (UniProt Q01279); assay: co-immunoprecipitation with mLeg1 antibody from livers of mLeg1 knockout mice at 0, 10, 20, 40, 60 min after intragastric mLeg1
[3] = biological target: EGFR in mouse liver (epidermal growth factor receptor, hepatocyte surface receptor) (mouse) (UniProt Q01279); assay: summary of the co-immunoprecipitation from livers after intragastric administration
[4] = biological target: EGFR in mouse liver (epidermal growth factor receptor, hepatocyte surface receptor) (mouse) (UniProt Q01279); assay: co-immunoprecipitation with mLeg1 antibody from livers of mLeg1 knockout mice two hours after intragastric mLeg1-Re

B1: mLeg1 protein (wild-type mouse Leg1, partially purified from the salivary glands of wild-type mice by sepharose 6B column chromatography) (ligand)
chain: VSDSSDPYPPLWEDSPEQLSDYMMEDGNYIINPWVYTDRMGMYRILLEETAMYFAKYGPENEQNLLWGLPLQFGWQYQSGRLADPTGMTDCGNELNESLCVSVDSWWADINYYLSVIPFLAAVDSGITGISPNQITILPPPKDQMRFCYNVSDCQSAVPGTMNRWRDFFQYMQLNSSDFDGLLNYLWEAHASSLDYPTSAFGDRYNFYSEKEANFEENWAIAVNYLAAARLPTTQNRTYSFQRGLPPRVLVDTDIAPFIPDFTPLQNEVLVSLKLLGDTDRNSGSLSLTLWENLMSTKLARTLFLKAFEEFLATSS
[1]
  binding: binds
[2]
  binding: binds
[3]
  binding: binds

B2: recombinant mLeg1-Re protein (mLeg1 expressed in the Escherichia coli expression system, modification-defective) (ligand, not shown: small tags and cut ends)
chain: EVSDSSDPYPPLWEDSPEQLSDYMMEDGNYIINPWVYTDRMGMYRILLEETAMYFAKYGPENEQNLLWGLPLQFGWQYQSGRLADPTGMTDCGNELNESLCVSVDSWWADINYYLSVIPFLAAVDSGITGISPNQITILPPPKDQMRFCYNVSDCQSAVPGTMNRWRDFFQYMQLNSSDFDGLLNYLWEAHASSLDYPTSAFGDRYNFYSEKEANFEENWAIAVNYLAAARLPTTQNRTYSFQRGLPPRVLVDTDIAPFIPDFTPLQNEVLVSLKLLGDTDRNSGSLSLTLWENLMSTKLARTLFLKAFEEFLATSS
[4]
  binding: binds
